Source: patent US12509653B2, “Organ chip to model mammalian joint” (University of Pittsburgh—Of the Commonwealth System of …, priority 2017, dated 2025)
At least one compound was matched to its structure with a doubt left.

Tested on: chondrocytes and osteoblasts in the bioreactor
Experiment: RT-PCR marker expression in cartilage and bone chambers of the bioreactor under hormone stimulation
Type: cell-based
Protocol: Differential expression of markers (as determined by RT-PCR) was evaluated in a control medium that contained no estrogen or progesterone (first bar), and then different concentrations of hormones supplied to the chambers during week 1 (w1: 0.1 nM estradiol), week 2 (w2: 1 nM estradiol), week 3 (w3: 1 nM estradiol and 10 nM progesterone), and week 4 (w4: 0.1 nM estradiol and 50 nM progesterone). Differential expression of markers was determined in a control medium that contained no estrogen or progesterone (first bar), and then different concentrations of hormones supplied to the cartilage chamber during week 1 (w1: 0.1 nM estradiol), week 2 (w2: 1 nM estradiol), week 3 (w3: 1 nM estradiol and 10 nM progesterone), and week 4 (w4: 0.1 nM estradiol and 50 nM progesterone).

`C[C@]12CC[C@@H]3c4ccc(O)cc4CC[C@H]3[C@@H]1CC[C@@H]2O` [estradiol] was tested, and the “cartilage hypertrophy marker ColX” value (estradiol administered to the osseous side) was “upregulated” and the “cartilage anabolic markers such as Sox9 and Aggrecan” value (higher concentrations of estradiol in the bone chamber, more pronounced when applied to the osseous side) was “downregulated”.
